Test results as given in paper PMC3572064.
No constants are given. Whether binding was seen depends on the method and setting. In cells and extracts the contact can be indirect. Here binding means that the protein was enriched with, or labelled near, the bait; the list need not be complete. No binding means not detected with the bait.

The chains behind the UniProt entries cited, without tags or fusion partners.
UniProt A2AF53: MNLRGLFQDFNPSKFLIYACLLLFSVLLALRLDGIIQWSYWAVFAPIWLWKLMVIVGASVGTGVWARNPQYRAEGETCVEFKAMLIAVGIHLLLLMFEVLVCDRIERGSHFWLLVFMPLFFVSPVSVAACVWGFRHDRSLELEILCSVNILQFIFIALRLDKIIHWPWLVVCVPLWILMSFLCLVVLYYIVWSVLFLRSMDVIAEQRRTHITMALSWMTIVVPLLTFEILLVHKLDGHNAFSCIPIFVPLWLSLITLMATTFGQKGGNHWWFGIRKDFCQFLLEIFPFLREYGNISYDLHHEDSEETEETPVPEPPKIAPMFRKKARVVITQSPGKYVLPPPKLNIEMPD
UniProt Q62048: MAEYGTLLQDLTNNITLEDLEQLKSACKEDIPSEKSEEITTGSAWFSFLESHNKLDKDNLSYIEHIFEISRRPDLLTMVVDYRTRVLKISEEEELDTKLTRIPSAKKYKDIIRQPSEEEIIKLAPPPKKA
UniProt P60766: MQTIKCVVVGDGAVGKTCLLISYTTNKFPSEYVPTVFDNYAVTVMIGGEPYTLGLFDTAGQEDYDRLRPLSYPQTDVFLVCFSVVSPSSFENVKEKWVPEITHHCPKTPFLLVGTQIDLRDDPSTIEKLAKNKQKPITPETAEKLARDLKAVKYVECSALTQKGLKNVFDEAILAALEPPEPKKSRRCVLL

B1: endogenous mouse STOML1 (protein, UniProt Q8CI66 1-399)
chain: MLGRSGYRALPLGDFDRFQQSSFGFLGSQKGCLSPEPGSVGPGADAPESWPSCLCHGLVSVLGFLLLLLTFPISGWFALKIVPTYERMIVFRLGRIRNPQGPGMVLLLPFIDSFQRVDLRTRAFNVPPCKLASKDGAVLSVGADVQFRIWDPVLSVMAVKDLNTATRMTAHNAMTKALLRRPLQEIQMEKLKIGDQLLLEINDVTRAWGLEVDRVELAVEAVLQPPQDSLTVPSLDSTLQQLALHLLGGSMNSAVGRVPSPGPDTLEMINEVEPPASLAGAGAEPSPKQPVAEGLLTALQPFLSEALVSQVGACYQFNVILPSGTQSIYFLDLTTGQGRVGHGEPDGIPDVVVEMAEADLQALLSKELRPLGAYMSGRLKVKGDLAVVMKLEAVLKALK

The molecules below were run against GFP-TRPML1 (mouse), stably expressed in RAW264.7 macrophages (mouse) (UniProt Q99J21) (assay: affinity purification with mass spectrometry; anti-GFP beads on lysates of RAW264.7 clones stably expressing GFP-TRPML1 (Derlin-1-GFP clones as negative control); 20 mM Tris pH 7.5, 150 mM NaCl, 1% NP40, 5 mM EDTA (absence of Ca2+); MudPIT).

| binding | Molecule |
| --- | --- |
| binds | endogenous NP9 (from UniProt A2AF53 1-350) |
| no binding | endogenous PEA-15 (from UniProt Q62048 1-130) |
| binds | endogenous Cdc42 (from UniProt P60766 1-191) |
| binds | B1 |
